Data on two substances can be found in US20080090771A1 (SHIRE LLC, priority 2006, published 2008).

This data set in a line: peptide synthesis. Conditions: HCl.

Take Gly-Gly-Gly-Gly-Leu-Hydrocodone: the step yield (late stage modification step) amounted to 97%. The substance Boc-Gly-Gly-Gly-Gly-Leu-Hydrocodone displayed a step yield (coupling step) of 37%.
